These are yes or no findings as the source states them, for the method shown. Binding seen in cells or lysates may run through a third protein. Some results given as binding are weak or reduced against the parent protein; the word gives no strength.
Tests used:
[1] = target: cystathionine γ-lyase (CTH) (human (endogenous in A549 and H1299)) (UniProt P32929); experiment: co-IP; endogenous proteins in A549 and H1299 lysates; antibody 1 h at low temperature, A/G beads overnight, 5 washes with NETN buffer, Western blotting
GST-CTH fusion protein = GST-CTH fusion protein (UniProt P32929); experiment: pull-down; GST-CTH plus GST beads incubated with lysate of HEK293T cells transfected with Flag-Rad18 (in Fig. 4L with the corresponding plasmids, REV1 overexpression), 4 °C overnight, 5 washes with NETN buffer, Western blotting
SFB-REV1 = target: T1, SFB-REV1 (UniProt Q9UBZ9); experiment: co-IP; A549 cells transfected with SFB-REV1 for 24 h; supernatants incubated with S beads overnight at 4 °C, 5 washes with NETN buffer, Western blotting for endogenous USP9X
T1 sequence: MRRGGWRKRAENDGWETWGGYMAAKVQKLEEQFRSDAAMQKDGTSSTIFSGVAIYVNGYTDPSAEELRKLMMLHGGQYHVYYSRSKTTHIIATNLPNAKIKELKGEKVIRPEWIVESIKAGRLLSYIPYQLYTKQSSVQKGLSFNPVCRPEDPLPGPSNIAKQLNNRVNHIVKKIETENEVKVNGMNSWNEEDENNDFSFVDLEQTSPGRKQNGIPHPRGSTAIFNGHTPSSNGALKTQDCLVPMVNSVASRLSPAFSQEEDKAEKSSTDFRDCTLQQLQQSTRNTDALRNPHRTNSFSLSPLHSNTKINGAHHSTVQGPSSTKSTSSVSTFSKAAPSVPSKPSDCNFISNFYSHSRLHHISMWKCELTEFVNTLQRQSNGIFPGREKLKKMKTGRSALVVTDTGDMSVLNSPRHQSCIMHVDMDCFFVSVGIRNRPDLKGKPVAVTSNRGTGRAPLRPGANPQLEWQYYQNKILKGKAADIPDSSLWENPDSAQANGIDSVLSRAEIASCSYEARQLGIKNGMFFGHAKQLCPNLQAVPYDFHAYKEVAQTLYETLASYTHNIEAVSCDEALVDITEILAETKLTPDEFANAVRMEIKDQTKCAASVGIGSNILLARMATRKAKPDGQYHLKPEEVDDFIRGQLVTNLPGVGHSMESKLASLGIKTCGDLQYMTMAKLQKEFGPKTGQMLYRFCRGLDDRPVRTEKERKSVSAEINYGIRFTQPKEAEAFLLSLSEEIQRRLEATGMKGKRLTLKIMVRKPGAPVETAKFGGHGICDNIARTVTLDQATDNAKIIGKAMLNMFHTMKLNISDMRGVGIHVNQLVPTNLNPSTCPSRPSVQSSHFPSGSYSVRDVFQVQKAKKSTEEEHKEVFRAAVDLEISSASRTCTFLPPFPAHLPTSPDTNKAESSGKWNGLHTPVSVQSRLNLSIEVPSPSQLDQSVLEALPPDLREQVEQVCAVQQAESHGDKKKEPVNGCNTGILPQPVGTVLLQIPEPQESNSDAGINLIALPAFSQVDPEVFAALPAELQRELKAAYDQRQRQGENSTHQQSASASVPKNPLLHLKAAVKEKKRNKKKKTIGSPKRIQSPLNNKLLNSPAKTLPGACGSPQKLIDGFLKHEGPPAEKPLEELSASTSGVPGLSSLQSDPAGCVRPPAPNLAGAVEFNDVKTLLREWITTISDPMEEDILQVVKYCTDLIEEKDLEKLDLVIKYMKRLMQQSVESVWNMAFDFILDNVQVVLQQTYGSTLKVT

Amino acid sequences for entries named in this document (tags omitted).
UniProt P32929: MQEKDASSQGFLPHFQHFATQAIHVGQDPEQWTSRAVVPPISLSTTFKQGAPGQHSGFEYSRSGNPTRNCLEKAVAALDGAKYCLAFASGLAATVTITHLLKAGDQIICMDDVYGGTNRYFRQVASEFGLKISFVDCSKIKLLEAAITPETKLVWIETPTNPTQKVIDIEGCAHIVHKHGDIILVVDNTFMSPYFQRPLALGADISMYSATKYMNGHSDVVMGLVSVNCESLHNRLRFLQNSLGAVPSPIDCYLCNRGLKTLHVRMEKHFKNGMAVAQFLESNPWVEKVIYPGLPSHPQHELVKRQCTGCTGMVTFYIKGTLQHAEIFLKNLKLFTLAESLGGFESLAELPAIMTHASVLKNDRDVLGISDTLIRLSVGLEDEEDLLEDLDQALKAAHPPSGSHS
UniProt Q9NS91: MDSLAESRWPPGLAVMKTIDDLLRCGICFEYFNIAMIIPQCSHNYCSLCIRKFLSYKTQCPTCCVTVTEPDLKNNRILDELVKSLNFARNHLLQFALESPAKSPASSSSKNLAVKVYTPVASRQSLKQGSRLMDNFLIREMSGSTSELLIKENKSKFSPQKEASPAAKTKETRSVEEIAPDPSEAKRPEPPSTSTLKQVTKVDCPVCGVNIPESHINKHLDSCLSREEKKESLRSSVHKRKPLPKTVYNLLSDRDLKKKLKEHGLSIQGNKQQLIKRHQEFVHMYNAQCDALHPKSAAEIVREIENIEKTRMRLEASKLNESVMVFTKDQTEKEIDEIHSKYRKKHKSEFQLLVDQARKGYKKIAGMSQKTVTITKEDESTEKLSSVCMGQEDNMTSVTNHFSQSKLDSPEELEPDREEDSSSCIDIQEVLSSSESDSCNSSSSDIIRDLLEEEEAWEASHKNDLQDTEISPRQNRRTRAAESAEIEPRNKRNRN
UniProt Q93008: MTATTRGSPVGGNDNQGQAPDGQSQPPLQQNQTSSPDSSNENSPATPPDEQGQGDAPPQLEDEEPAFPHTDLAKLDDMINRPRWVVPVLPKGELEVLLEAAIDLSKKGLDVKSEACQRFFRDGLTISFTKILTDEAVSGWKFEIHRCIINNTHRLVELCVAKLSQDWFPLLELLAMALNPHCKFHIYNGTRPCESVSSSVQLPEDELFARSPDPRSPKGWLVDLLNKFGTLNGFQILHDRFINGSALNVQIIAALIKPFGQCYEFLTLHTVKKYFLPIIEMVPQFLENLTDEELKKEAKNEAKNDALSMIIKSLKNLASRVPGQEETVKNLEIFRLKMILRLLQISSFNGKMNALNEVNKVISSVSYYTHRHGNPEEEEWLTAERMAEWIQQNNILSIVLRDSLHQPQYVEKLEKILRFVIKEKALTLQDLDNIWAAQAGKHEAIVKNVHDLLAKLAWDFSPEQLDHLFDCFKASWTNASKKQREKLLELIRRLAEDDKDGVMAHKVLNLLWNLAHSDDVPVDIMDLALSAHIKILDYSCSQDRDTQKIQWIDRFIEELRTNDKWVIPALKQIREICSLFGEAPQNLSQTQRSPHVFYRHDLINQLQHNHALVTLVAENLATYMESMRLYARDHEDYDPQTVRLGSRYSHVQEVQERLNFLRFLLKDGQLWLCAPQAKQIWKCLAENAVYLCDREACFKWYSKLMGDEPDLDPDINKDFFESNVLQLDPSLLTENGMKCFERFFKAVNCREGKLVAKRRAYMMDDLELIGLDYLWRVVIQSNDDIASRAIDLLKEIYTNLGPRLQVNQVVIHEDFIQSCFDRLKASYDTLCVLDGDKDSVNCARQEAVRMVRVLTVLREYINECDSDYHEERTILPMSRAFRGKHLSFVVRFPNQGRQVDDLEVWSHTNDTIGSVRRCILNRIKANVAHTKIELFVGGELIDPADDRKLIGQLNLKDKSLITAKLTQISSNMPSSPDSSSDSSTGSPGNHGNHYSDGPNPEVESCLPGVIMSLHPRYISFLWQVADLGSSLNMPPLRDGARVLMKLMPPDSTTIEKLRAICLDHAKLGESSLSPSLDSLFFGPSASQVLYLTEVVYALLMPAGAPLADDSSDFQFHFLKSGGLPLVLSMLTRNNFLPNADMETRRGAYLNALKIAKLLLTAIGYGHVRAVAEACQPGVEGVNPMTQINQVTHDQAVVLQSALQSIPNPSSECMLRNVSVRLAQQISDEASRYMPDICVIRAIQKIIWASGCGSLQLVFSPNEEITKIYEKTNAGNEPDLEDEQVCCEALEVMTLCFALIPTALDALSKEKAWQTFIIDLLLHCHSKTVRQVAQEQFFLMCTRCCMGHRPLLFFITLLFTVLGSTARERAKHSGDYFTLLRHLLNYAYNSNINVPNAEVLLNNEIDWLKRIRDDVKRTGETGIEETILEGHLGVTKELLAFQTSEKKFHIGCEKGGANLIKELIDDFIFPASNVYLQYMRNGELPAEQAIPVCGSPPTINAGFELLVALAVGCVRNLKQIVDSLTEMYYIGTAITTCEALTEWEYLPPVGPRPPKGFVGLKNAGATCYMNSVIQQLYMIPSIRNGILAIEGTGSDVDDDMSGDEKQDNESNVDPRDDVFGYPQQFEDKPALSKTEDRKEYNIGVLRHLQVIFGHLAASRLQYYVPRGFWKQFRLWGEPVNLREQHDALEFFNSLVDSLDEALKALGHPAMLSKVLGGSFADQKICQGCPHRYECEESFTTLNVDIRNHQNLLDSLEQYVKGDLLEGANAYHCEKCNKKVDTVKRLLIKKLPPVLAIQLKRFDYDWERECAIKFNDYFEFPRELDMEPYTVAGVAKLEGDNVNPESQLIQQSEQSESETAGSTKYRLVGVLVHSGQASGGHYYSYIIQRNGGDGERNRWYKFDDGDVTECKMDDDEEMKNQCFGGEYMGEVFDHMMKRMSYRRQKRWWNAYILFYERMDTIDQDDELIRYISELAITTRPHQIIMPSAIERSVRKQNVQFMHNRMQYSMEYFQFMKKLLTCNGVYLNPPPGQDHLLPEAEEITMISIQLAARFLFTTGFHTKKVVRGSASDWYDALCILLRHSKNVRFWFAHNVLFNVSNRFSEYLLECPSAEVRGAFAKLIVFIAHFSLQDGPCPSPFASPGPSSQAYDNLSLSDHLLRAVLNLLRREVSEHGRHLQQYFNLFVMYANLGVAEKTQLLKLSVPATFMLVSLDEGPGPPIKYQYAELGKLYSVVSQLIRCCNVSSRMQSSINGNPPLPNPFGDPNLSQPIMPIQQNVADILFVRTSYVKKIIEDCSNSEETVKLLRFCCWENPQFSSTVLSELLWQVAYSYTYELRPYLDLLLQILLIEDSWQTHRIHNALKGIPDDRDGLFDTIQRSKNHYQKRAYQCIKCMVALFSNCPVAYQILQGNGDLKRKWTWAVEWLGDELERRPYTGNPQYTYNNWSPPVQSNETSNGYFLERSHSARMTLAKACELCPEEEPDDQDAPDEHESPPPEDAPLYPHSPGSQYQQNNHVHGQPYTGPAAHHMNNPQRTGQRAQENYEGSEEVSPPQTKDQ

[2] = target: T2, REV1 DNA directed polymerase (REV1) (human (endogenous in A549 and H1299)) (UniProt Q9UBZ9); experiment: co-IP; endogenous REV1 co-IP, blotted for the targets of the four screened drugs; antibody 1 h at low temperature, A/G beads overnight, 5 washes with NETN buffer
T2 sequence: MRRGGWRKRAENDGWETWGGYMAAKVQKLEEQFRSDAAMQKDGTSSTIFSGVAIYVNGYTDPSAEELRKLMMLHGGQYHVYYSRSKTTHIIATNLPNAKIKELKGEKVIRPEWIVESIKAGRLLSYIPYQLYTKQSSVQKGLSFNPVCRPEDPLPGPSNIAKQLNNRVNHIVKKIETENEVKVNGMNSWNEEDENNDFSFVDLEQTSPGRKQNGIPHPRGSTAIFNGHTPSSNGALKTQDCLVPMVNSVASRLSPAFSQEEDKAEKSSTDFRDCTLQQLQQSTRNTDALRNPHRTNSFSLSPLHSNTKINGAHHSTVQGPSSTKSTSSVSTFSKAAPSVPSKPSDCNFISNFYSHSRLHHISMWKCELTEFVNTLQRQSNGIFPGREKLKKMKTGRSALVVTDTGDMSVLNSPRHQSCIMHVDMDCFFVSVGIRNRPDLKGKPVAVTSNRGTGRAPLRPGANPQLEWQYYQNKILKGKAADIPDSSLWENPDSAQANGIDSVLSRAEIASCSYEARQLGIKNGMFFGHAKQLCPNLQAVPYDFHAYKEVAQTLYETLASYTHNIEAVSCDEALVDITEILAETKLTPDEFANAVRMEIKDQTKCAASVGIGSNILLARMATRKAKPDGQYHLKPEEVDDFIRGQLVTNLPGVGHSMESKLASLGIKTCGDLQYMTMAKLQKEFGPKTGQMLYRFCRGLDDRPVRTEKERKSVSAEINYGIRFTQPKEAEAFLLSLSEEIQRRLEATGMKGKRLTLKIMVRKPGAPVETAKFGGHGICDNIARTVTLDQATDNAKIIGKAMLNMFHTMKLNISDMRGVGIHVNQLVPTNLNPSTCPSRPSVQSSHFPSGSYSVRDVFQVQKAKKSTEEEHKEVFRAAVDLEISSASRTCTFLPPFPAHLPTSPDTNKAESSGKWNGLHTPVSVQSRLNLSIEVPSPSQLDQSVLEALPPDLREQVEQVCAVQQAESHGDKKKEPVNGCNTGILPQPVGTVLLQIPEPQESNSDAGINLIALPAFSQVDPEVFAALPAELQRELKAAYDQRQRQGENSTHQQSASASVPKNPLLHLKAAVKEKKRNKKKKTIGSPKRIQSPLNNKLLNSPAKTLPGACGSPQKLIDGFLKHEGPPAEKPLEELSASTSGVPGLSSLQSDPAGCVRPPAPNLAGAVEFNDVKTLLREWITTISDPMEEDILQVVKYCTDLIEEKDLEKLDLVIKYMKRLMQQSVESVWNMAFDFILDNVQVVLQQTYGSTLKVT

For “E3 ubiquitin ligase Rad18 (from UniProt Q9NS91 1-495) (enzyme)”, the binding [1] was “binds”.

For “Flag-Rad18 (from UniProt Q9NS91 1-495) (enzyme)”, the binding (GST-CTH fusion protein) was “binds”.

With “ubiquitin-specific peptidase 9 X-linked (USP9X) (from UniProt Q93008 1-2554) (enzyme)” the binding (SFB-REV1) was “binds” and the binding [2] was “binds”.

B1: REV1 DNA directed polymerase (REV1) (protein, UniProt Q9UBZ9 1-1251)
chain: MRRGGWRKRAENDGWETWGGYMAAKVQKLEEQFRSDAAMQKDGTSSTIFSGVAIYVNGYTDPSAEELRKLMMLHGGQYHVYYSRSKTTHIIATNLPNAKIKELKGEKVIRPEWIVESIKAGRLLSYIPYQLYTKQSSVQKGLSFNPVCRPEDPLPGPSNIAKQLNNRVNHIVKKIETENEVKVNGMNSWNEEDENNDFSFVDLEQTSPGRKQNGIPHPRGSTAIFNGHTPSSNGALKTQDCLVPMVNSVASRLSPAFSQEEDKAEKSSTDFRDCTLQQLQQSTRNTDALRNPHRTNSFSLSPLHSNTKINGAHHSTVQGPSSTKSTSSVSTFSKAAPSVPSKPSDCNFISNFYSHSRLHHISMWKCELTEFVNTLQRQSNGIFPGREKLKKMKTGRSALVVTDTGDMSVLNSPRHQSCIMHVDMDCFFVSVGIRNRPDLKGKPVAVTSNRGTGRAPLRPGANPQLEWQYYQNKILKGKAADIPDSSLWENPDSAQANGIDSVLSRAEIASCSYEARQLGIKNGMFFGHAKQLCPNLQAVPYDFHAYKEVAQTLYETLASYTHNIEAVSCDEALVDITEILAETKLTPDEFANAVRMEIKDQTKCAASVGIGSNILLARMATRKAKPDGQYHLKPEEVDDFIRGQLVTNLPGVGHSMESKLASLGIKTCGDLQYMTMAKLQKEFGPKTGQMLYRFCRGLDDRPVRTEKERKSVSAEINYGIRFTQPKEAEAFLLSLSEEIQRRLEATGMKGKRLTLKIMVRKPGAPVETAKFGGHGICDNIARTVTLDQATDNAKIIGKAMLNMFHTMKLNISDMRGVGIHVNQLVPTNLNPSTCPSRPSVQSSHFPSGSYSVRDVFQVQKAKKSTEEEHKEVFRAAVDLEISSASRTCTFLPPFPAHLPTSPDTNKAESSGKWNGLHTPVSVQSRLNLSIEVPSPSQLDQSVLEALPPDLREQVEQVCAVQQAESHGDKKKEPVNGCNTGILPQPVGTVLLQIPEPQESNSDAGINLIALPAFSQVDPEVFAALPAELQRELKAAYDQRQRQGENSTHQQSASASVPKNPLLHLKAAVKEKKRNKKKKTIGSPKRIQSPLNNKLLNSPAKTLPGACGSPQKLIDGFLKHEGPPAEKPLEELSASTSGVPGLSSLQSDPAGCVRPPAPNLAGAVEFNDVKTLLREWITTISDPMEEDILQVVKYCTDLIEEKDLEKLDLVIKYMKRLMQQSVESVWNMAFDFILDNVQVVLQQTYGSTLKVT
B1 was tested, and the binding [1] was “binds”.
